Reference: patent US8951734B2, “Prion-like form of CPEB and related compositions and methods” (priority 2003, dated 2015)
At least one structure is not confirmed: it was looked up by name or label, or the drawing left a doubt.

Key:
ApCPEB = ApCPEB protein induction in isolated pleural ganglia / sensory cell clusters stimulated with 5-HT, with or without pharmacological agents (Western blot); format: cell-based, Aplysia
Method: Aplysia weighing 80-100 grams were used for serotonin (5-HT) stimulation. For whole animal stimulation, the animals were stimulated for 1-1.5 hr at 17° C. with 100 uM of freshly prepared serotonin (Sigma) and then moved to sea water at 17° C. At designated times the pleural ganglia were dissected out. The dissection was carried out in ice cold seawater and frozen in a dry ice-ethanol bath. To apply different pharmacological agents, the pleural ganglia were dissected out and rested for 3-4 hrs at 17° C. before initiation of the treatment. The pleural ganglia were stimulated with 10 uM serotonin instead of 100 uM.
For western blotting pleural ganglia were homogenized in a buffer containing 600 mM KCl, 10 mM HEPES (7.4), 3 mM MgCl2, 1 mM DTT, and 0.2% NP-40; rotated at 4° C. for 20 min, centrifuged at 14,000×g for 10 min and the supernatant was collected. Approximately 10 ug of total protein was separated on a 10% SDS-PAGE gel and transferred to PVDF membrane. […]

[1] = tested on: sensory-motor neuron synapses; conditions: locally applied to a synapse (Casadio et al. 1999); cited from earlier work

| Structure (SMILES) | effect on serotonin-induced increase in ApCPEB (ApCPEB; pretreated 30 min with 20 nM) | effect on long-term plasticity [1] | effect on serotonin induced expression of ApCPEB (ApCPEB; PI3 kinase inhibitor pretreatment, 30 min) |
| --- | --- | --- | --- |
| CO[C@H]1C[C@@H]2CC[C@@H](C)[C@@](O)(O2)C(=O)C(=O)N2CCCC[C@H]2C(=O)O[C@H]([C@H](C)C[C@@H]2CC[C@@H](O)[C@H](OC)C2)CC(=O)[C@H](C)/C=C(\C)[C@@H](O)[C@@H](OC)C(=O)[C@H](C)C[C@H](C)/C=C/C=C/C=C/1C [rapamycin] | blocked | selectively blocks the maintenance phase | – |
| O=c1cc(N2CCOCC2)oc2c(-c3ccccc3)cccc12 [LY294002] | – | – | effectively blocked |
